At least one structure is not confirmed: it was looked up by name or label, or the drawing left a doubt.
Tested on: patient-derived GBM L0, L1, L2 cells (total, SCCs, FCCs)
Assay: MTT cell viability assay with TMZ
Type: cell-based, human

In the case of Cn1nnc2c(C(N)=O)ncn2c1=O [TMZ, temozolomide], the “cell viability, resistance to TMZ of SCCs versus FCCs” value (SCCs from all three GBM lines, MTT) is reported as “higher resistance to TMZ than the corresponding cell line's FCCs” and the “cell viability, sensitivity to TMZ” value (total cell populations L0, L1, L2, MTT 96 hours after treatment) is reported as “displayed some sensitivity to TMZ”.

— US20220054610A1, “SLOW-CYCLING CELL-RNA BASED NANOPARTICLE VACCINE TO TREAT CANCER” (University of Florida Research Foundation, Inc., priority 2018, published 2022)
